Article PMC2834746
These are yes or no findings as the source states them, for the method shown. Binding can be weak; no strength is given.

Biological target: GAL4:Bma-EcR(LBD) (DEF domains, residues 259-565) (Brugia malayi)

binding: binds
Substance: VP16:Bma-RXR(LBD) (DEF domains, residues 191 to 464) (from UniProt A9XG30) (domain or fragment)
